In the supplement of paper PMC3334620:
Whole data set: some 33,000 sequences, median “E-score (-0.5 to 0.5)” near -0.0014, cut for the highest 2% near 0.25. The list shows a part of the results.

Each sequence was assayed against T1, Cad1 (UniProt P24813) (assay: PBM E-score (8-mer binding enrichment) (E-score (-0.5 to 0.5)); higher = stronger / more preferred TF binding). Conditions: protein concentration: 100 nM; construct: GST-full length.
T1 sequence: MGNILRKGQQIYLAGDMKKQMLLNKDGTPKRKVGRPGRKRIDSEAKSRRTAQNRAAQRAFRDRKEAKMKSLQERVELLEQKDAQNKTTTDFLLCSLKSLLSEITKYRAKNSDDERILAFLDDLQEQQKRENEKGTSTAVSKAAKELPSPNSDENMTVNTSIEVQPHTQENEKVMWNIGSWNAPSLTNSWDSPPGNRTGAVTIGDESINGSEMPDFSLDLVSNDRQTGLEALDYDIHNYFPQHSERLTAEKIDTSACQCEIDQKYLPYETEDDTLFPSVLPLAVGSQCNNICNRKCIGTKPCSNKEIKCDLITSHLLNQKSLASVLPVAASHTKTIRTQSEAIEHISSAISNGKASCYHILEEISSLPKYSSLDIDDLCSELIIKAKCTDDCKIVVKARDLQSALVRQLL
How it was run: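 Each ungapped eight-base word and its reverse complement, pooled, received an E-score from the Universal PBM Analysis Suite. Underlying scans, normalised with masliner, recorded fluorescent anti-GST bound to GST-tagged yeast transcription factors. These were applied at about 100-200 nM to universal all-10-mer Agilent arrays double-stranded by primer extension.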
With ACGTTCCA the “PBM E-score” value was 0.0384. In the case of ACGCAATC, the “PBM E-score” value is reported as 0.0413. In the case of CTTGGCTA, the “PBM E-score” value is reported as 0.134. For ATGCCGAA, the “PBM E-score” value was 0.0888. For ACGTTGCA, the “PBM E-score” value was 0.0237. GAAGACGA was tested, and the “PBM E-score” value was -0.0447. ATTCGAAT was tested, and the “PBM E-score” value was 0.132. With CCACCCTC the “PBM E-score” value was 0.0947. With CCCAGGAA the “PBM E-score” value was -0.104. GACCCCGC was tested, and the “PBM E-score” value was -0.0512. In the case of ACTATTTG, the “PBM E-score” value is reported as 0.101. With AGTGGACG the “PBM E-score” value was 0.0569. For AACCTGTA, the “PBM E-score” value was -0.019. For CAAAGGAA, the “PBM E-score” value was 0.0936. With AAGTCTAT the “PBM E-score” value was -0.191. With CATTTGGG the “PBM E-score” value was -0.0702. With CTGGGGTC the “PBM E-score” value was -0.164. With CGCTATTA the “PBM E-score” value was 0.253. With AGGTATCG the “PBM E-score” value was 0.161. CGTTGTAG was tested, and the “PBM E-score” value was 0.111. For AACGCTTA, the “PBM E-score” value was 0.021. In the case of TATGCGAA, the “PBM E-score” value is reported as 0.161. AAGAGGTA was tested, and the “PBM E-score” value was -0.0197. GACATCTC was tested, and the “PBM E-score” value was 0.0236. For ACCGTCAC, the “PBM E-score” value was -0.176. With CTTAGGCA the “PBM E-score” value was -0.00969. CATGTAAC was tested, and the “PBM E-score” value was 0.0311. With TAGAGTGA the “PBM E-score” value was -0.0446. For CCCCACTC, the “PBM E-score” value was -0.201. For AGCTGGCG, the “PBM E-score” value was -0.231. With ACCTGCTC the “PBM E-score” value was -0.0212. In the case of ACCAGATA, the “PBM E-score” value is reported as 0.208. For AGACTAAT, the “PBM E-score” value was 0.00954. In the case of CACCAATA, the “PBM E-score” value is reported as -0.0376. CGCACGTC was tested, and the “PBM E-score” value was -0.0553. With GCAATTCA the “PBM E-score” value was 0.0205. In the case of GAGCCGTA, the “PBM E-score” value is reported as 0.203. For TAGCCAAA, the “PBM E-score” value was -0.00044. In the case of ATATTGCA, the “PBM E-score” value is reported as 0.108. TGACCCAA was tested, and the “PBM E-score” value was 0.13. CTCTAGTC was tested, and the “PBM E-score” value was -0.388. ATTATACC was tested, and the “PBM E-score” value was 0.1. In the case of CCTAGCGC, the “PBM E-score” value is reported as 0.0836. With AACACACT the “PBM E-score” value was 0.165. With CAACCGTC the “PBM E-score” value was -0.00819. For ACTTTCAC, the “PBM E-score” value was 0.0546. For GCCTTCAA, the “PBM E-score” value was 0.0307. For ATATCGCC, the “PBM E-score” value was 0.0776. With AGTGCATG the “PBM E-score” value was -0.00125. With ACAAAGCT the “PBM E-score” value was 0.124. With AAAGTACG the “PBM E-score” value was -0.038. With GTCATACA the “PBM E-score” value was 0.148. For GTTTGATA, the “PBM E-score” value was 0.141. CGCAATTA was tested, and the “PBM E-score” value was 0.092. With AATAGTAG the “PBM E-score” value was 0.185. In the case of ACACATTA, the “PBM E-score” value is reported as 0.123. In the case of ACGCATAA, the “PBM E-score” value is reported as 0.144. In the case of GGCCCTCA, the “PBM E-score” value is reported as -0.326. AGCCCTGG was tested, and the “PBM E-score” value was -0.211. For GCCACTAC, the “PBM E-score” value was -0.117. GCAACGGC was tested, and the “PBM E-score” value was 0.0742. In the case of CTTTCGAC, the “PBM E-score” value is reported as -0.128. For ATACGGGG, the “PBM E-score” value was -0.164. GGCACGTA was tested, and the “PBM E-score” value was -0.035. For AGTCGGAG, the “PBM E-score” value was -0.129. With AGCTGGCA the “PBM E-score” value was 0.0357. With AGGGGGTA the “PBM E-score” value was -0.405. With CCTTGCGA the “PBM E-score” value was 0.0326. For ATCAGAAC, the “PBM E-score” value was 0.0354. AAACTGGC was tested, and the “PBM E-score” value was -0.13. In the case of AATCTGTG, the “PBM E-score” value is reported as 0.13. AACTAGCG was tested, and the “PBM E-score” value was 0.0415. CCAAGCAG was tested, and the “PBM E-score” value was -0.0965. With AGGCGTGG the “PBM E-score” value was -0.319. With AACCAGTC the “PBM E-score” value was -0.111. In the case of CTCATGAC, the “PBM E-score” value is reported as -0.0193. For AGACGGCG, the “PBM E-score” value was 0.0855. In the case of CTCGCGAC, the “PBM E-score” value is reported as 0.15. In the case of CCAAGACA, the “PBM E-score” value is reported as 0.177. TACGGGCA was tested, and the “PBM E-score” value was -0.111. With ACGCACAT the “PBM E-score” value was 0.0418. In the case of ATAGATAG, the “PBM E-score” value is reported as -0.108. For AGTCTTTA, the “PBM E-score” value was -0.142. AGTATCAT was tested, and the “PBM E-score” value was 0.133. ATTCCTCA was tested, and the “PBM E-score” value was 0.0519. ACACGTCA was tested, and the “PBM E-score” value was 0.00866. With CCGAAACA the “PBM E-score” value was 0.0714. For CTTGACTA, the “PBM E-score” value was 0.175. For AGCTGGAA, the “PBM E-score” value was -0.0891. With CCATTGAA the “PBM E-score” value was 0.159. With CTATCAGC the “PBM E-score” value was 0.107. For GTCGGCTA, the “PBM E-score” value was 0.048. For GGATCGTA, the “PBM E-score” value was -0.0815. With CTAACCCC the “PBM E-score” value was -0.267. GAGGGATA was tested, and the “PBM E-score” value was -0.196. ACACTCCA was tested, and the “PBM E-score” value was 0.02. For ATTACGTG, the “PBM E-score” value was 0.163. In the case of CGCTTACG, the “PBM E-score” value is reported as 0.242. In the case of GGATCTAA, the “PBM E-score” value is reported as -0.182. In the case of CCGTGGAG, the “PBM E-score” value is reported as -0.127. With CCTGCCCA the “PBM E-score” value was -0.0659. For CAGTCCGA, the “PBM E-score” value was 0.047. In the case of CCCTCATC, the “PBM E-score” value is reported as -0.187. CTGTAAAG was tested, and the “PBM E-score” value was -0.113. In the case of CATGCGAA, the “PBM E-score” value is reported as 0.0648. For ACGCCAAT, the “PBM E-score” value was 0.11. In the case of CCTCGCAG, the “PBM E-score” value is reported as -0.146. AATAGACG was tested, and the “PBM E-score” value was 0.0192. ATTGTGAG was tested, and the “PBM E-score” value was -0.0176. CTACTGCA was tested, and the “PBM E-score” value was -0.159. With ATCACTGA the “PBM E-score” value was -0.0215. With ATCGTCAG the “PBM E-score” value was 0.0634. In the case of GAAATATA, the “PBM E-score” value is reported as 0.169. With CAAGAGAG the “PBM E-score” value was -0.186. For CAGTCAGG, the “PBM E-score” value was 0.0571. In the case of CGCCTGTC, the “PBM E-score” value is reported as -0.0831. For AACCACAG, the “PBM E-score” value was -0.0849. GTCGAGGA was tested, and the “PBM E-score” value was -0.167. ACCATGCC was tested, and the “PBM E-score” value was 0.0435. TAGATACA was tested, and the “PBM E-score” value was -0.0438. For AAGGCGTC, the “PBM E-score” value was -0.0396. ACGAAATA was tested, and the “PBM E-score” value was 0.201. In the case of GCCGTACC, the “PBM E-score” value is reported as -0.0698. For CAGGCCGG, the “PBM E-score” value was -0.205. In the case of CATGGGAC, the “PBM E-score” value is reported as -0.0807. For CGACTTTC, the “PBM E-score” value was -0.101. GCACAGTA was tested, and the “PBM E-score” value was 0.0893. For AACGGTCA, the “PBM E-score” value was -0.0368. GCAGGGCC was tested, and the “PBM E-score” value was -0.122. With TAAAGCTA the “PBM E-score” value was -0.186. In the case of CGCCGCTA, the “PBM E-score” value is reported as -0.0235. AGTGCCCA was tested, and the “PBM E-score” value was 0.0563. With AGTCCTTG the “PBM E-score” value was -0.0247. GATGGCAA was tested, and the “PBM E-score” value was 0.093. In the case of GGACGGAC, the “PBM E-score” value is reported as -0.0841. In the case of AATACCGG, the “PBM E-score” value is reported as 0.103. With CCGAGACG the “PBM E-score” value was 0.0676. For CGCAAGAA, the “PBM E-score” value was 0.244. With AACTGCCG the “PBM E-score” value was 0.152. With ATCGTATC the “PBM E-score” value was 0.0772. For GCAAGAAA, the “PBM E-score” value was -0.0319. In the case of AGCATACG, the “PBM E-score” value is reported as -0.0266. In the case of ATCCCACG, the “PBM E-score” value is reported as -0.121. For CTTAGGTC, the “PBM E-score” value was -0.172. With AGCGCATA the “PBM E-score” value was 0.0834. With AACTGCCA the “PBM E-score” value was -0.134. For CGCTCAGA, the “PBM E-score” value was -0.0504. CCTTCGGA was tested, and the “PBM E-score” value was -0.00486. With ACGTCATA the “PBM E-score” value was 0.15. In the case of CCTATAGC, the “PBM E-score” value is reported as -0.0832. With ACCATCAA the “PBM E-score” value was 0.0458. With CCGTCAGC the “PBM E-score” value was 0.0939. With CTAATATC the “PBM E-score” value was 0.247. With GCCAGATA the “PBM E-score” value was 0.0165. For CTCACTAA, the “PBM E-score” value was -0.00114. With GGTGATAA the “PBM E-score” value was -0.0826. In the case of AGGTAAAT, the “PBM E-score” value is reported as -0.00978. In the case of CGGGGCTC, the “PBM E-score” value is reported as -0.302. For CTAAACAA, the “PBM E-score” value was -0.178. With ATCCCCCG the “PBM E-score” value was -0.313. For ACCAACCT, the “PBM E-score” value was 0.0932. With CGAGGGGA the “PBM E-score” value was -0.237. With CGTTAATC the “PBM E-score” value was 0.104. GCTATTAC was tested, and the “PBM E-score” value was 0.098. With ACAGTCTA the “PBM E-score” value was -0.0844. CCACTTGA was tested, and the “PBM E-score” value was -0.0496. With TAGCACTA the “PBM E-score” value was 0.0501. In the case of GGGAATAC, the “PBM E-score” value is reported as 0.0313. With GGATGCCA the “PBM E-score” value was -0.14. GGTCAGTA was tested, and the “PBM E-score” value was -0.112. In the case of CCGAGACC, the “PBM E-score” value is reported as -0.05. GTACTATA was tested, and the “PBM E-score” value was 0.183.
